Data reported in patent publication US20170128412A1, “SYSTEM AND METHOD FOR IMPROVED BLOOD CIRCULATION AND MAINTAINING MITOCHONDRIAL ENERGY PRODUCTION” (priority 2015, published 2017).

Experiment: Linoleate peroxidative reaction inhibition (AAPH, linoleate micellar solution)
Assay type: biochemical
Settings: specimen 25 μM; one hour, room temperature
Experimental: Chart 4 indicates the linoleate peroxidative reaction inhibition action of tocotrienol, a-tocopherol, and Coenzyme Q10. The linoleate micellar solution comprised 300mM linoleate, 5 mM 2,2′-Azobis(2-amidinopropane) dihydrochloride (AAPH), and a specimen (tocotrienol, α-tocopherol, or Coenzyme Q10) dissolved in 0.3% Lubrol Px—20 mM sodium phosphate buffer (pH 7.4). The reaction composition reacted at room temperature for one hour, and then 0.5 ml of methanol was added to the composition, and then 2.0 ml of 70% methanol was added to the composition. The absorbance measurement was conducted at 234 nm.
In the case of `COC1=C(OC)C(=O)C(C/C=C(\C)CC/C=C(\C)CC/C=C(\C)CC/C=C(\C)CC/C=C(\C)CC/C=C(\C)CC/C=C(\C)CC/C=C(\C)CC/C=C(\C)CCC=C(C)C)=C(C)C1=O` [Coenzyme Q10, coenzyme Q10], the “Absorbance (234 nm)” value is reported as 2.17. For `Cc1c(C)c2c(c(C)c1O)CC[C@@](C)(CCC[C@H](C)CCC[C@H](C)CCCC(C)C)O2` [α-Tocopherol, α-tocopherol], the “Absorbance (234 nm)” value was 1.26. For tocotrienol, the “Absorbance (234 nm)” value was 1.26.
